The values below come from patent US8680233B2, “Heteropeptides useful for reducing nonspecific adsorption” (Valorisation-Recherche, Limited Partnership, priority 2009, dated 2014).

The subject of the first data set is bovine serum proteins. The data set is described as follows: Nonspecific adsorption of bovine serum proteins on peptide SAMs measured by SPR. Conditions: bovine serum 200-1200 s, then PBS. As for the experimental part: The surface coverage for each monolayer was measured according to the change in response of the SPR sensor in PBS for the bare Au surface relative to the peptide-coated Au surface. To measure the formation of the monolayers, each SPR sensor was mounted on a custom-made SPR instrument in the Kretschmann configuration based on a dove prism with wavelength interrogation as previously described (Bolduc et al., 2009, supra). An Ocean Optics™ USB4000 fibre optic spectrometer ranging from 550 to 850 nm was used to acquire the spectral information processed with Matlab to obtain the SPR sensorgram. A 25 μL Teflon fluidic cell positioned on top of the SPR sensors was used to inject the solutions required to functionalize with the recognition element and detect the analytes of interest. The SPR response was acquired at a frequency of 1 Hz. The s-polarized reference was acquired in PBS buffer before monitoring a 5 minute baseline in p-polarization. PBS was replaced with crude bovine serum (76 mg/mL protein) for 20 minutes and rinsed with PBS for 5 minutes to quantify the amount of non-specifically adsorbed proteins.
The first part of the sensorgram is a reference measured while PBS is in contact with the surface of the SPR sensor covered with the 3-MPA-HHHDD-OH peptide. PBS is first injected over a period of 200 s in the SPR system. […] After 5 minutes, PBS is replaced with adult bovine serum. The instant shift of signal is due to the refractive index of the bulk solution (the refractive index of serum is greater than the refractive index of PBS). This shift is unrelated to the nonspecific adsorption of proteins. The more progressive increase of λSPR typical to a Langmuir-Blodgett model describing the evolution of interactions at a surface used to characterize the evolution of the nonspecific interaction with time. PBS buffer is then injected over the sensor to obtain a second reference, allowing the quantification of nonspecific proteins still attached at the surface of the sensor. A return to the initial λSPR value (i.e., the value prior to bovine serum injection), as shown in FIG. 1A (1200 s to 1600 s time frame) is indicative of an efficient SAM that reduces nonspecific interactions.
These values are lower than those measured in other types of monolayers, which typically range between 100 to 1000 ng/cm^2 (Luppa, P. B. et al. Clin. Chim. Acta 2001, 314: 1); Masson, J. F. et al. Talanta 2005, 67: 918; Masson, J. F. et al. Anal. Bioanal. Chem. 2006, 386: 1951; Bolduc, O. R. et al. Anal. Chem. 2009, 81: 6779; Bolduc, O. R. and Masson, J. F. Langmuir 2008, 24: 12085).
For orientation: Surface plasmon resonance follows binding to a sensor surface in real time, without labels.
With “3-MPA-HHHDD-OH (N-terminal 3-mercaptopropionic acid)”, the “Shift of SPR signal (λSPR) after bovine serum exposure and PBS rinse” value is given as “less than 1 nm”.

Still in this data set, the particulars now being: bovine serum on peptide SAM; Table II.
As for “3-MPA-GGHHDD-OH (N-terminal 3-mercaptopropionic acid)”, the ΔΓnonspecific is reported as 149 ± 100 ng/cm^2.
On to “3-MPA-LHDLHD-OH (N-terminal 3-mercaptopropionic acid)”, for which the ΔΓnonspecific amounted to 12 ± 11 ng/cm^2.
Take “3-MPA-DSDSD-OH (N-terminal 3-mercaptopropionic acid)”: the ΔΓnonspecific turned out to be 34 ± 31 ng/cm^2.
Same read-out and setting: with “3-MPA-SHDSHD-OH (N-terminal 3-mercaptopropionic acid)” the figure was 17 ± 14 ng/cm^2.
Still for that read-out and setting: with “3-MPA-LLHHDD-OH (N-terminal 3-mercaptopropionic acid)” the figure was 174 ± 120 ng/cm^2.

The same data set, now with this note: relative to Table I peptides.
For the substance “3-MPA-LHDLHD-OH (N-terminal 3-mercaptopropionic acid)”, the “Reduction in nonspecific adsorption relative to binary peptide SAM” value amounted to 2 factor.

Still in this data set, the particulars now being: undiluted adult bovine serum on peptide SAM; Table I; average of four replicates.
As to “3-MPA-LLLDD (N-terminal 3-mercaptopropionic acid)”, the “Nonspecific adsorption ΔΓnonspecific” value is listed as 35 ng/cm^2.
With “3-MPA-SSSHH (N-terminal 3-mercaptopropionic acid)”, the “Nonspecific adsorption ΔΓnonspecific” value was determined as 79 ng/cm^2.
The same measure, in the same setting: with “3-MPA-DDDHH (N-terminal 3-mercaptopropionic acid)” the figure was 56 ng/cm^2.
On the same count and under the same terms, with “3-MPA-HHHSS (N-terminal 3-mercaptopropionic acid)” the figure was 48 ng/cm^2.
Consider “3-MPA-LLLHH (N-terminal 3-mercaptopropionic acid)”, for which the “Nonspecific adsorption ΔΓnonspecific” value came out at 45 ng/cm^2.
Same read-out and setting: with “3-MPA-LLLSS (N-terminal 3-mercaptopropionic acid)” the figure was 39 ng/cm^2; with “3-MPA-DDDSS (N-terminal 3-mercaptopropionic acid)”, 69 ng/cm^2.
For “3-MPA-HHHDD-OH (N-terminal 3-mercaptopropionic acid)”, the “Nonspecific adsorption ΔΓnonspecific” value is 32 ng/cm^2.
The same measure, in the same setting: under “3-MPA-SSSDD (N-terminal 3-mercaptopropionic acid)” stands 23 ng/cm^2.
